The list shows a part of the results.
Experiments:
Experiment in all cases: log2 fold change, soluble protein after heating vs DMSO (PISA); higher = thermal stabilisation; K562 cells, 10 uM, 30 min; active = over 0.2 and 3.5 SD of the protein, either way, in both replicates (recomputed)
[1] = compound: CC1=C(C=C(C=C1)NC(=O)C2=CC(=CC=C2)C(C)(C)C#N)NC3=CC4=C(C=C3)N=CN(C4=O)C
In short: (§1)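 K562 cells (2×10^6 cells/mL) were treated with 10 μM compound for 30 min, and aliquots were heated for 3 min over 48°C-58°C. Pooled aliquots were extracted in PBS with 0.5% NP-40 at 4°C, and the supernatant after 21,000xg for 90 min was measured by TMTpro 16plex LC-MS/MS with channel sums equalised. Reported thermal stability, relative to control samples and from duplicates, is a log2 fold change.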

Protein sequences, listed by entry. Tags and fused reporters are not part of them. Lines headed by an entry give the natural chain unless they say otherwise; changes in a name come on top.
UniProt P49458: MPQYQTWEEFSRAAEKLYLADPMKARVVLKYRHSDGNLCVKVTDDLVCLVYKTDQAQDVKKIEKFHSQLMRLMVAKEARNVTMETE
UniProt Q8WVM7: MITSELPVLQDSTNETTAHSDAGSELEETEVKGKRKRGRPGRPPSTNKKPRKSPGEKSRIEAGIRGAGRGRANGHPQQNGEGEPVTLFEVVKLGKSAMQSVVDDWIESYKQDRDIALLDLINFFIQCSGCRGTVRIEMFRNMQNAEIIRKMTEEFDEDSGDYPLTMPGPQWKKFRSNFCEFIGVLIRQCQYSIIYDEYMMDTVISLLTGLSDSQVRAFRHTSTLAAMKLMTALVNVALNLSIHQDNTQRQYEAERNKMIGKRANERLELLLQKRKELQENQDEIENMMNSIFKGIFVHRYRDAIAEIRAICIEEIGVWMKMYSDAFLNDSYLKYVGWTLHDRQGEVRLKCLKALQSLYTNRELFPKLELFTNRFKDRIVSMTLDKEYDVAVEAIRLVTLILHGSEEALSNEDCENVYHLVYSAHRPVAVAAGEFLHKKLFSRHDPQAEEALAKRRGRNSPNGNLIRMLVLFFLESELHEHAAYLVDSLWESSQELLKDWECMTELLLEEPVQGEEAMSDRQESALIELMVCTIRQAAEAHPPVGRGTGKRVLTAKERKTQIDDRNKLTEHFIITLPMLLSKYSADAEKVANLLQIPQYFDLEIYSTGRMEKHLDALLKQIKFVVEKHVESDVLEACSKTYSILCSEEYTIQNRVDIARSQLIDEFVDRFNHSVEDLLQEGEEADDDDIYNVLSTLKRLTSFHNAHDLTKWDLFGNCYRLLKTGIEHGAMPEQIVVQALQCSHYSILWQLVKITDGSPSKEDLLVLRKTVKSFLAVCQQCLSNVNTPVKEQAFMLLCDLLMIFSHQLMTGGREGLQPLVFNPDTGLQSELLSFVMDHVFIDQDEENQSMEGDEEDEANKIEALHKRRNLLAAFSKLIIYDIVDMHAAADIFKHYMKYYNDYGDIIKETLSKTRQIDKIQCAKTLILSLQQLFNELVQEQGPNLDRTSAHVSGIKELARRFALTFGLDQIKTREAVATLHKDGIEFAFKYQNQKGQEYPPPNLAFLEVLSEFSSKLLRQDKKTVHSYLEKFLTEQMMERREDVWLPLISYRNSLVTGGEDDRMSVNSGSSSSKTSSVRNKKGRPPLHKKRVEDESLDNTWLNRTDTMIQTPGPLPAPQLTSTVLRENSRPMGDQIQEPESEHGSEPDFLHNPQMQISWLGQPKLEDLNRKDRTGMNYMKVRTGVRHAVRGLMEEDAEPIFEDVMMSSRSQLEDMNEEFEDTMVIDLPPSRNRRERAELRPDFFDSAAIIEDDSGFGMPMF
UniProt P19623: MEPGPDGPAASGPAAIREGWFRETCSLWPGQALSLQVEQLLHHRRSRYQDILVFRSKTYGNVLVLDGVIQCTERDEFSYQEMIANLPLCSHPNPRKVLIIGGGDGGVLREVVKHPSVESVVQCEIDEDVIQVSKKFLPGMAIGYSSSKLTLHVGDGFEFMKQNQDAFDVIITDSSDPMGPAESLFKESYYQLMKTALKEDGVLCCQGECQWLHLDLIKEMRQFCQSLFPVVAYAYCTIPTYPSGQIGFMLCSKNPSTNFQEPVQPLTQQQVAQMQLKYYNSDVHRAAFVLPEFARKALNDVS
UniProt Q9P2P6: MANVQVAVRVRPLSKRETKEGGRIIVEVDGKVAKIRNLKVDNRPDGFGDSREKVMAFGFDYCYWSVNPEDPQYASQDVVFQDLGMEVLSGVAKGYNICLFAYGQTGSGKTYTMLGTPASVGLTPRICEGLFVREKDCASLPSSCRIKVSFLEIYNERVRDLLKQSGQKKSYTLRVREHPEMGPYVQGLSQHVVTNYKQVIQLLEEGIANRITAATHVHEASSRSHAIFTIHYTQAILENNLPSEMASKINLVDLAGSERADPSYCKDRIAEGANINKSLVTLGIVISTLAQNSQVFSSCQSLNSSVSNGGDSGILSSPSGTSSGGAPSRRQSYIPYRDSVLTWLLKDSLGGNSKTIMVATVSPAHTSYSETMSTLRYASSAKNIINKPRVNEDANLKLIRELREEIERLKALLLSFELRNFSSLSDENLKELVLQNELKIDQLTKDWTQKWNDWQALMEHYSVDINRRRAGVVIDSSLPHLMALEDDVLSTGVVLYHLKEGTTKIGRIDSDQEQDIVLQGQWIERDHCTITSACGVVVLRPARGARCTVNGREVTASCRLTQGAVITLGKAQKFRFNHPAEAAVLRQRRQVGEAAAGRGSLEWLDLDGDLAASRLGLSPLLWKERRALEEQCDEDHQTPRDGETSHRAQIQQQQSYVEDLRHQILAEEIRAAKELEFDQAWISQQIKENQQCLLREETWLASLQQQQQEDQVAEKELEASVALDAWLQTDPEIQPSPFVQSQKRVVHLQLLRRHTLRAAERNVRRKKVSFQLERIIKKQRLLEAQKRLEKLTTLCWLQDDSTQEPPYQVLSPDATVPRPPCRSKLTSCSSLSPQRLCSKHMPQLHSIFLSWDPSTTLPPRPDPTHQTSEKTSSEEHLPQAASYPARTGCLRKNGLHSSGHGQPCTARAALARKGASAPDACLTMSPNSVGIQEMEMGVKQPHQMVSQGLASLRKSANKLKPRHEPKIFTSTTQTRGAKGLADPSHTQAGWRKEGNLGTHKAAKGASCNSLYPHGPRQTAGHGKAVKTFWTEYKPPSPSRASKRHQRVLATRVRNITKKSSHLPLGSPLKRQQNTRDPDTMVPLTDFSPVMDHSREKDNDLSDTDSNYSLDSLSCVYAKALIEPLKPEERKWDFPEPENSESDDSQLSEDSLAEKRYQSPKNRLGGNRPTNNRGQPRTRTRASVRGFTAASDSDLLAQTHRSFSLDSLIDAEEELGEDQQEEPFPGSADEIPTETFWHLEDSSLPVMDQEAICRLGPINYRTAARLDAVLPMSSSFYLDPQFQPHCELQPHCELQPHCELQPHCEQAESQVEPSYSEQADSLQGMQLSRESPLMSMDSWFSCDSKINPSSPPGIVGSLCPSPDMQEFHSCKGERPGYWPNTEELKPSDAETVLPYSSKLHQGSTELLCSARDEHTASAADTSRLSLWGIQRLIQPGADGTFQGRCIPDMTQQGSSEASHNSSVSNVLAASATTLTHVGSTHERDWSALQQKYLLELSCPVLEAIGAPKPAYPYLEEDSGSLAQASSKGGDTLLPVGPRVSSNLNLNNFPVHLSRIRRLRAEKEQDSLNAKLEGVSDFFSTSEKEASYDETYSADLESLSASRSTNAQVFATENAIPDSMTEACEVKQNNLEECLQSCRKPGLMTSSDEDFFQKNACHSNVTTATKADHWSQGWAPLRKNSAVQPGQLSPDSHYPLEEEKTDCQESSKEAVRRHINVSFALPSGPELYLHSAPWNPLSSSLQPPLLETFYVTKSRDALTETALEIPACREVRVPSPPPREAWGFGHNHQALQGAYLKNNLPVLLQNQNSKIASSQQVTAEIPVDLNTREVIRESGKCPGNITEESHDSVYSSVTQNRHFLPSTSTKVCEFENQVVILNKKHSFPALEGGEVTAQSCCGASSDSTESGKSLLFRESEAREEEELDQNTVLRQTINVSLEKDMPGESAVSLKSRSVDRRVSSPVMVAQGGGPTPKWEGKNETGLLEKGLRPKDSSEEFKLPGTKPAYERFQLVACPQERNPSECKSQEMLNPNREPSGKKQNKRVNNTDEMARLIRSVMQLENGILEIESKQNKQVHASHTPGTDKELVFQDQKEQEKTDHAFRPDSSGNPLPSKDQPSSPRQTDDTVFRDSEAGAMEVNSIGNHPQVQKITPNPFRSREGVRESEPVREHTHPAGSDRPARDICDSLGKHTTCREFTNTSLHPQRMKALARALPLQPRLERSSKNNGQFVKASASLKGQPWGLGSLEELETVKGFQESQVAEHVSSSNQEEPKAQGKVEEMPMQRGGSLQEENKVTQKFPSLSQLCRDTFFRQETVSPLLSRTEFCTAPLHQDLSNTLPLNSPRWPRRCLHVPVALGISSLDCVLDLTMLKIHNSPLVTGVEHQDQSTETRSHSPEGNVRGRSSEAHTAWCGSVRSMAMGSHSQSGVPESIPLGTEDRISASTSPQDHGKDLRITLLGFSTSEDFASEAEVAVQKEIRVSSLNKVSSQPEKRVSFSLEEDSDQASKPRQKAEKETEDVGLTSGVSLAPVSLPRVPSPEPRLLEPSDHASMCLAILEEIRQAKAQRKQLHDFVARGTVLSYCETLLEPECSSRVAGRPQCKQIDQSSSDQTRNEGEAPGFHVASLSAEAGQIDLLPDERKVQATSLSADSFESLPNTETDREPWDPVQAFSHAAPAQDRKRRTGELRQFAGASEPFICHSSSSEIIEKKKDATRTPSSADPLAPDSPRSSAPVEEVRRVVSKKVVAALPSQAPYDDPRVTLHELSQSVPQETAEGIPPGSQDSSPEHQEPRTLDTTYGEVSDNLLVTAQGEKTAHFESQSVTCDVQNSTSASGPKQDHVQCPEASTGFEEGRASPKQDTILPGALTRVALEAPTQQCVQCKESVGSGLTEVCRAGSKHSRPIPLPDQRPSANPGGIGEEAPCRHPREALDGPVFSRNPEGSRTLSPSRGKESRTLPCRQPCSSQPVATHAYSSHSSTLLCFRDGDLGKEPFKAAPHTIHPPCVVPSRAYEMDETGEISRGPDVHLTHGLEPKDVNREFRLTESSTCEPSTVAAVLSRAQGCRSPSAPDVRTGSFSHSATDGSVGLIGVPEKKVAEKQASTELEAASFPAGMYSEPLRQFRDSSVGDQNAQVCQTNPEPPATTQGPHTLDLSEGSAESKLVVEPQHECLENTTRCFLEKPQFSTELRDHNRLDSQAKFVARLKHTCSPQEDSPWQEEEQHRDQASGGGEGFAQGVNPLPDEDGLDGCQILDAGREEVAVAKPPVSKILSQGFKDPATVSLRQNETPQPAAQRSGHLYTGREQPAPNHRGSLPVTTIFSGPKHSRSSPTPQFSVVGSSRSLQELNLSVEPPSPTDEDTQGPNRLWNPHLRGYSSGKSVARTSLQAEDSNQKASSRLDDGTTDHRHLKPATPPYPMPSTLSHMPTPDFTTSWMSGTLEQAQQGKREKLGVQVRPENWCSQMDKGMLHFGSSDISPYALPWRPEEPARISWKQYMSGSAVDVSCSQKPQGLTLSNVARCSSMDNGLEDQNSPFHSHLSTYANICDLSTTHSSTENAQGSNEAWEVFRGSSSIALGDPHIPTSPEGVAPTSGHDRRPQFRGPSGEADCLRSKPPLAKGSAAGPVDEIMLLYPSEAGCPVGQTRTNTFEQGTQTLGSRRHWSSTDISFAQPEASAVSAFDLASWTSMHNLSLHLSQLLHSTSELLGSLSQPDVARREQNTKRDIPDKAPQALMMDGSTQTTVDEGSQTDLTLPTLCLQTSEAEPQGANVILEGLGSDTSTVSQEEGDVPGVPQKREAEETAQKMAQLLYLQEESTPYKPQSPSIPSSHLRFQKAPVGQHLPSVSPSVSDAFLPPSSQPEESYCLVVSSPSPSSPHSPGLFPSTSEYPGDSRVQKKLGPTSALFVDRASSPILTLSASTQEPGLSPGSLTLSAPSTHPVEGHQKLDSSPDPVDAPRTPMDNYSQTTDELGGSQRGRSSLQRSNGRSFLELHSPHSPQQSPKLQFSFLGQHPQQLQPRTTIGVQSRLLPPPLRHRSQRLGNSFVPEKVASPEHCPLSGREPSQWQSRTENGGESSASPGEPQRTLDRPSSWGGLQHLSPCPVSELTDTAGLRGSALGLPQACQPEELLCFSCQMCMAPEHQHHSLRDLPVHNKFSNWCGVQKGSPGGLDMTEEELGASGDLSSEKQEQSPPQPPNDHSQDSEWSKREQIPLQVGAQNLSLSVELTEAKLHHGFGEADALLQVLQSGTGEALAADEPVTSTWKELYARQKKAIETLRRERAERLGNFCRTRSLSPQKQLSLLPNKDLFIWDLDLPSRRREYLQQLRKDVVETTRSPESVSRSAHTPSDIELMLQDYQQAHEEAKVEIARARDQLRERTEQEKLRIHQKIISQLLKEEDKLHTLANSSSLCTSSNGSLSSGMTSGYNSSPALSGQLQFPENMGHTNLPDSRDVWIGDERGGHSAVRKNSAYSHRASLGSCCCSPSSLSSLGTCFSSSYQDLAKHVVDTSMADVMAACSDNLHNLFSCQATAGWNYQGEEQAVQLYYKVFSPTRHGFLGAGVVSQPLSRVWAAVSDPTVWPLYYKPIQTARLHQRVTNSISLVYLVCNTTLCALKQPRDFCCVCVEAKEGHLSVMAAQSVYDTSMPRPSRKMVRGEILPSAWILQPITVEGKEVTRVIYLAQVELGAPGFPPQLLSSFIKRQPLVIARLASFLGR
UniProt P51571: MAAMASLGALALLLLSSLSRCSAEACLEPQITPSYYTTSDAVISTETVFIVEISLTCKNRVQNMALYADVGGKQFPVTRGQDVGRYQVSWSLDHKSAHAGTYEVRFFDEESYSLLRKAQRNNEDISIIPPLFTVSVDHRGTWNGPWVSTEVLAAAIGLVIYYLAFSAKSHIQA

[2] = compound: CC1=C(C=C(C=C1)NC(=O)C2=CC(=CC=C2)N(C)C)NC(=O)C3=CC=C(C=C3)O
In short: as §1

[3] = compound: CC1=CC=C(C=C1)SC2=C3C=C(SC3=CN=C2)C(=O)N
In short: as §1

[4] = compound: CC1=NC(=CC=C1)C2=C(N=C(N2)C(C)(C)C)C3=CC4=NC=CN=C4C=C3
In short: as §1

Nexturastat A = compound: CCCCN(Cc1ccc(C(=O)NO)cc1)C(=O)Nc1ccccc1 [Nexturastat A]
In short: as §1

vemurafenib = compound: CCCS(=O)(=O)Nc1ccc(F)c(C(=O)c2c[nH]c3ncc(-c4ccc(Cl)cc4)cc23)c1F [vemurafenib]
In short: as §1

[5] = compound: CCCS(=O)(=O)Nc1ccc(F)c(C(=O)c2c[nH]c3ncc(Cl)cc23)c1F
In short: as §1

[6] = compound: CCCc1cc(C)[nH]c(=O)c1CNC(=O)c1cc(-c2ccnc(N3CCN(C)CC3)c2)cc2c1cnn2C(C)C
In short: as §1

givinostat = compound: CCN(CC)Cc1ccc2cc(COC(=O)Nc3ccc(C(=O)NO)cc3)ccc2c1 [givinostat]
In short: as §1

barasertib = compound: CCN(CCCOc1ccc2c(Nc3cc(CC(=O)Nc4cccc(F)c4)[nH]n3)ncnc2c1)CCOP(=O)(O)O [barasertib]
In short: as §1

[7] = compound: CC[C@@H]1C(=O)N(C)c2cnc(Nc3ccc(C(=O)NC4CCN(C)CC4)cc3OC)nc2N1C1CCCC1
In short: as §1

volasertib = compound: CC[C@@H]1C(=O)N(C)c2cnc(Nc3ccc(C(=O)N[C@H]4CC[C@H](N5CCN(CC6CC6)CC5)CC4)cc3OC)nc2N1C(C)C [volasertib]
In short: as §1

[8] = compound: CC[C@H](C)N1C=C(C2=C(C=C(C=C21)C3=CN=C(C=C3)N4CCNCC4)C(=O)NCC5=C(C=C(NC5=O)C)C)C
In short: as §1

epoxomicin = compound: CC[C@H](C)[C@@H](C(=O)N[C@@H]([C@@H](C)O)C(=O)N[C@@H](CC(C)C)C(=O)[C@]1(CO1)C)NC(=O)[C@H]([C@@H](C)CC)N(C)C(=O)C [epoxomicin]
In short: as §1

[9] = compound: CCn1c(C(=O)N(C2CC2)C2CC2)cc2c3c(ncn3C)c(Nc3cc(C)n(C)n3)nc21
In short: as §1

[10] = compound: CCn1cc(-c2ccnc3[nH]c(-c4cccc(CN(C)C)c4)cc23)c(-c2ccc(NC(=O)N(C)C)cc2)n1
In short: as §1

[11] = compound: CN(C)CC(=O)Nc1ccc2[nH]c(=O)c3ccccc3c2c1
In short: as §1

rosiglitazone = compound: CN(CCOC1=CC=C(C=C1)C[C@H]2C(=O)NC(=O)S2)C3=CC=CC=N3 (racemic) [rosiglitazone]
In short: as §1

[12] = compound: CN1C2=C(C3=C1C(=O)N(N=C3)CC4=CC(=CC=C4)N)SC(=C2)S(=O)C
In short: as §1

[13] = compound: CN1CCC(CNc2ccc3ncc(-c4cccc(OC(F)(F)F)c4)n3n2)CC1
In short: as §1

| Target | log2 fold change [1] | log2 fold change [2] | log2 fold change [3] | log2 fold change [4] | log2 fold change (Nexturastat A) | log2 fold change (vemurafenib) | log2 fold change [5] | log2 fold change [6] | log2 fold change (givinostat) | log2 fold change (barasertib) | log2 fold change [7] | log2 fold change (volasertib) | log2 fold change [8] | log2 fold change (epoxomicin) | log2 fold change [9] | log2 fold change [10] | log2 fold change [11] | log2 fold change (rosiglitazone) | log2 fold change [12] | log2 fold change [13] |
| --- | --- | --- | --- | --- | --- | --- | --- | --- | --- | --- | --- | --- | --- | --- | --- | --- | --- | --- | --- | --- |
| SPHK1 isoform 2 (UniProt Q9NYA1) | inactive: -0.028 | inactive: 0.056 | inactive: 0.085 | inactive: 0.006 | inactive: -0.162 | inactive: 0.018 | inactive: 0.074 | inactive: -0.089 | inactive: 0.054 | inactive: 0.035 | inactive: -0.045 | inactive: -0.056 | inactive: -0.052 | inactive: 0.036 | inactive: -0.005 | inactive: -0.093 | inactive: 0.002 | inactive: 0.098 | inactive: -0.171 | inactive: -0.009 |
| SRP9 (UniProt P49458) | inactive: 0.003 | inactive: -0.008 | inactive: -0.043 | inactive: -0.106 | inactive: 0.198 | inactive: -0.111 | inactive: -0.026 | inactive: 0.084 | inactive: 0.003 | inactive: -0.117 | inactive: 0.208 | inactive: 0.273 | inactive: -0.017 | inactive: -0.296 | inactive: 0.021 | inactive: 0.223 | inactive: -0.122 | inactive: -0.141 | inactive: 0.288 | inactive: 0.28 |
| STAG1 (UniProt Q8WVM7) | inactive: -0.001 | inactive: -0.004 | inactive: -0.008 | inactive: 0.029 | inactive: 0.048 | inactive: 0.011 | inactive: 0.07 | inactive: 0.016 | inactive: 0.048 | inactive: 0.006 | inactive: -0.041 | inactive: -0.162 | inactive: 0.028 | inactive: 0.062 | inactive: -0.023 | inactive: 0.026 | inactive: -0.005 | inactive: -0.014 | inactive: -0.078 | inactive: -0.039 |
| SRM (UniProt P19623) | inactive: 0.015 | inactive: 0 | inactive: -0.004 | inactive: 0.025 | inactive: -0.035 | inactive: 0.012 | inactive: 0.006 | inactive: 0.005 | inactive: -0.038 | inactive: 0.001 | inactive: 0.039 | inactive: 0.036 | inactive: 0.01 | inactive: 0.04 | inactive: 0.026 | inactive: -0.061 | inactive: 0.017 | inactive: 0.029 | inactive: -0.051 | inactive: -0.051 |
| SRSF1 (UniProt Q07955) | inactive: -0.003 | inactive: 0.042 | inactive: -0.116 | inactive: 0.002 | inactive: 0.182 | inactive: -0.032 | inactive: -0.061 | inactive: 0.077 | inactive: -0.002 | inactive: -0.118 | inactive: 0.225 | inactive: 0.264 | inactive: -0.024 | inactive: -0.234 | inactive: -0.032 | inactive: 0.155 | inactive: -0.136 | inactive: -0.13 | inactive: 0.191 | inactive: 0.212 |
| ST7 (UniProt Q9NRC1) | inactive: -0.04 | inactive: 0.013 | inactive: 0.039 | inactive: -0.083 | inactive: 0.034 | inactive: 0.012 | inactive: 0.095 | inactive: -0.039 | inactive: 0.189 | inactive: -0.013 | inactive: 0.055 | inactive: -0.121 | inactive: -0.015 | inactive: 0.025 | inactive: -0.017 | inactive: -0.061 | inactive: 0.029 | inactive: 0.017 | inactive: 0.045 | inactive: -0.11 |
| SSH2 (UniProt Q76I76) | inactive: -0.04 |  |  |  |  |  |  |  |  |  |  |  |  |  |  |  |  |  |  |  |
| SPIN1 (UniProt Q9Y657) | inactive: 0.103 | inactive: -0.035 | inactive: -0.029 | inactive: 0.017 | inactive: -0.145 | inactive: -0.11 | inactive: -0.034 | inactive: -0.077 | inactive: -0.184 | inactive: -0.016 | inactive: 0.085 | inactive: 0.024 | inactive: 0.112 | inactive: 0.069 | inactive: 0.005 | inactive: 0.022 | inactive: -0.005 | inactive: 0.021 | inactive: -0.01 | inactive: 0.048 |
| STARD9 (UniProt Q9P2P6) | inactive: -0.29 | inactive: 0.01 | inactive: -0.07 | inactive: -0.048 | inactive: 0.144 | inactive: -0.161 | inactive: 0.029 | inactive: -0.035 | inactive: -0.046 | inactive: -0.017 | inactive: -0.024 | inactive: 0.238 | inactive: -0.029 | inactive: 0.022 |  | inactive: 0.008 | inactive: 0.075 |  | active: 0.507 | inactive: -0.098 |
| SPCS2 (UniProt Q15005) | inactive: 0.011 | inactive: 0.004 | inactive: 0 | inactive: 0.3 | inactive: -0.052 | inactive: 0.075 | inactive: 0.058 | inactive: -0.011 | inactive: -0.009 | inactive: 0.025 | inactive: 0.018 | inactive: -0.006 | inactive: 0.02 | inactive: 0.091 |  | inactive: -0.009 | inactive: 0.038 |  | inactive: -0.078 | inactive: 0.005 |
| STAT6 (UniProt P42226) | inactive: -0.092 | inactive: -0.111 | inactive: 0.053 | inactive: 0.015 | inactive: 0.044 | inactive: 0.058 | inactive: 0.082 | inactive: -0.012 | inactive: 0.078 | inactive: 0.001 | inactive: -0.196 | active: -0.594 | inactive: -0.02 | inactive: -0.074 |  | inactive: 0.1 | inactive: 0.093 |  | inactive: 0.018 | inactive: -0.11 |
| SRP54 (UniProt P61011) | inactive: 0.046 | inactive: -0.026 | inactive: 0.003 | inactive: 0 | inactive: 0.044 | inactive: 0.032 | inactive: 0.042 | inactive: 0.017 | inactive: 0.025 | inactive: 0.048 | inactive: -0.07 | inactive: -0.177 | inactive: 0.06 | inactive: 0.025 | inactive: -0.038 | inactive: -0.039 | inactive: 0.035 | inactive: 0.031 | inactive: -0.03 | inactive: -0.089 |
| SSR4 (UniProt P51571) | inactive: -0.004 | inactive: 0.012 | inactive: 0.064 | inactive: 0.039 | inactive: -0.046 | inactive: -0.014 | inactive: 0.081 | inactive: -0.035 | inactive: 0.03 | inactive: -0.052 | inactive: 0.004 | inactive: -0.01 | inactive: -0.004 | inactive: 0.029 |  | inactive: 0.002 | inactive: -0.022 |  | inactive: -0.028 | inactive: 0.045 |
| SPG21 (UniProt Q9NZD8) | inactive: -0.108 | inactive: -0.157 | inactive: -0.003 | inactive: 0.057 | inactive: 0.016 | inactive: 0.044 | inactive: -0.044 | inactive: 0.057 | inactive: -0.014 | inactive: 0.026 | inactive: -0.082 | active: -0.615 | inactive: 0.065 | active: 0.315 |  | inactive: 0.037 | inactive: 0.018 |  | inactive: -0.098 | inactive: -0.21 |
| ST6GALNAC1 (UniProt Q9NSC7) | inactive: 0.009 | inactive: -0.012 | inactive: 0.079 | inactive: -0.015 | inactive: 0.004 | inactive: 0.051 | inactive: 0.032 | inactive: 0.026 | inactive: 0 | inactive: -0.054 | inactive: -0.108 | inactive: 0.01 | inactive: -0.07 | inactive: -0.001 | inactive: 0.059 |  | inactive: -0.02 | inactive: 0.059 | inactive: 0.004 |  |
| STAT3 (UniProt P40763) | inactive: 0.012 | inactive: 0.001 | inactive: -0.009 | inactive: -0.008 | inactive: 0.005 | inactive: 0.101 | inactive: 0.102 | inactive: 0.017 | inactive: 0.089 | inactive: 0.064 | active: -0.336 | active: -0.767 | inactive: 0.056 | inactive: 0.002 |  | inactive: -0.059 | inactive: 0.052 |  | inactive: -0.047 | active: -0.275 |
| ST3GAL2 (UniProt Q16842) | inactive: 0.064 | inactive: -0.054 | inactive: -0.216 | inactive: 0.066 | inactive: -0.012 | inactive: -0.032 | inactive: -0.013 | inactive: 0.212 | inactive: 0.078 | inactive: 0.112 | inactive: -0.28 | active: -0.562 | inactive: -0.053 | inactive: -0.053 |  | inactive: 0.062 | inactive: 0.005 |  | inactive: -0.071 | active: -0.474 |
| SRPRB (UniProt Q9Y5M8) | inactive: 0.096 | inactive: -0.051 | inactive: 0.025 | inactive: 0.092 | inactive: -0.035 | inactive: 0.061 | inactive: 0.073 | inactive: 0.035 | inactive: -0.127 | inactive: 0.027 | inactive: -0.141 | inactive: -0.048 | inactive: 0.031 | inactive: 0.1 |  | inactive: -0.134 | inactive: 0.042 |  | inactive: -0.05 | inactive: 0.051 |

Only log2 fold change [13], for some of the entries so far:
Target,log2 fold change [13]
SRSF1 (UniProt Q07955),inactive: 0.212
ST7 (UniProt Q9NRC1),inactive: -0.11
